In all, about 53,000 sequences went through this assay and about 3,700 (7%) were called active.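 Rule for the calls: active = gene knockdowns whose robust z-score for IL-1 alpha signal is at least 2 or at most -2, so actives lie on both sides; inactive = the rest.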 The list shows a part of the results.
Assay: Components of the Cytosolic LPS Sensing Pathway: Gene Identification via Genome-wide siRNA Screen;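 note: robust z of the log signal after scaling to non-targeting control siRNA wells of the plate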
Conditions: RAW264.7 macrophages, IL-1a HTRF, actives lie on both sides, screened at 100 nM (by protocol), cells primed 5 h with Pam3CSK4 first
How it was run: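 Mouse macrophage line RAW264.7 is transfected with siRNA (100 nM final), grown 48h, primed with TLR ligand Pam3CSK4 5 h and given intracellular LipidA 24 h. IL-1a in supernatant is read by HTRF and viability by luminescence.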

Sequence	z-score
GUGAAAUCUAUGGAGAAUGTT against Jkamp	inactive: 1.34
GCAGGUCACUUUCUAGAGATT against Srsf3	active: -2.25
CCAGAGGCCAUAGUUAUGUTT against Wnk1	inactive: 1.29
CCGAGUUUGCCUUCUAUCCTT against Hoxb13	inactive: 0.913
GGCGAAAGAUGAACCACCATT against Aurkaip1	inactive: -1.65
GGCUUUGAUAUACCUUGAATT against Pvt1	inactive: -1.98
GGCAAAGCCAAAAGAAAUATT against Mindy2	inactive: 0.852
GGGCAGCACUGUGGUUAAUTT against Sh3rf1	inactive: -1.92
GGCAGAAUGGGCUUAUGUCTT against Trabd	active: -2.54
GCGGAGAGAUCAAAGCGAUTT against Iltifb	active: -2.05
GGAGAAGAAGUCCAAAGGATT against Tnfaip2	inactive: -0.392
CCAACGGAUGCUCAAACAATT against Aspscr1	inactive: -1.62
GGUUAGCUGAAAGUUGAGGTT against Fbxo41	inactive: 1.28
GCUACGAAGAAGCAUGCCUTT against Slain1	inactive: -0.132
GCCGUUAACCUCAAGUUUUTT against Lrrn3	inactive: -0.181
CCUCCCUAUUCUAUGGUAGTT against Prss34	inactive: 0.0934
CCUGUUUCUGACCUAAUACTT against Syn1	inactive: -0.088
GCCGAGCCAUAUGACACUATT against Tlk2	inactive: -0.566
GGCCAUGAAUCUUGUUGGGTT against Scg5	inactive: -0.684
CCGUUAGGUUUUUAUCCAATT against Ube2b	inactive: 0.193
GGAUUUUGAACCCAGUUAUTT against St3gal5	inactive: -0.861
CCAGAUUGUCACUUGCUACTT against Skint3	inactive: 1.25

Pulled one by one from above (2):
Sequence	z-score
GGCCAUGAAUCUUGUUGGGTT against Scg5	inactive: -0.684
GGCGAAAGAUGAACCACCATT against Aurkaip1	inactive: -1.65

Two neighbouring records already listed, quoted:
Sequence	z-score
GCCGAGCCAUAUGACACUATT against Tlk2	inactive: -0.566
GGCCAUGAAUCUUGUUGGGTT against Scg5	inactive: -0.684

The listing continues:

Sequence	z-score
GGGUUAUCCAAGUCUUUUCTT against Olfr617	inactive: 1.48
GGAUGGCUCCAUUGUCAUATT against Mpz	inactive: 0.37
GGAACUUAAUCACCCUAAUTT against Cdk2	inactive: -1.46
CCACUUUCAGAAACAUUACTT against A2ml1	inactive: -1.01
GCUAUGCAGAGGAGUAUGCTT against Duoxa1	active: 3.03
GGUUAAGCAGAAAUUAAGATT against Supt20	inactive: -0.551
GGCUUUUUCCUCUAUCUGATT against Thoc1	inactive: -0.291
GCCACCCACCUAAAAUCAATT against Rcsd1	inactive: -0.216
CCCUUUGCAUUCCUACUGATT against Gm9991	inactive: -0.179
GGCAUGAUUAUUGUGUUUGTT against Abcb11	inactive: 0.41
GGUGCAGCAUACCUGAAGATT against Parm1	inactive: 0.803
GGUCUUAAACAGUGUGACATT against Gbf1	inactive: -1.15
GCUGAAGGAGAAAUUCACCTT against Ptgds	inactive: 0.923
GGGUCAUGUACUUCUUUAUTT against Mip	inactive: 0.461
GGACAAAGAGGCAAUGGGATT against Dnajb9	inactive: 1.08
CGUCCAGAGCUACGUAUGCTT against Olfr1490	inactive: 0.849
GGCCAAAGUGGUGUGUUUCTT against Mta1	active: 2.46
GGGCAGUCAACUUAGUGAGTT against Olfr1208	inactive: -0.631
GCAAGUUACCAGGAUGCAATT against Pglyrp3	inactive: -0.379
CGGUGAUCGUCAUUUUAUUTT against Ap4m1	active: 2.47
GGAGCGCAGACAACAGAUUTT against Zkscan5	inactive: 0.634
GGAAAGCCAUCGAAUUUCCTT against Il17re	inactive: 0.0362

Sequence	z-score
GGAAAGAAAAAUGAAGCUUTT against Tmem167b	inactive: -0.548
GCUCGAUUCAGUCAUUGAGTT against Ak2	inactive: -0.975
GCUGUAAAGUAAGUGUAGUTT against Rwdd4a	inactive: 0.59
GGAGACUAAGGAGGUUUAUTT against Ruvbl1	inactive: 0.494
GGUUCUCCCAGACCAAAGATT against Cables1	inactive: -0.186
GCAAGAUCUUGAGUUUUGATT against Wnt3	inactive: 0.171
GGAAAACUAGACAGAAAAUTT against Letm2	inactive: 0.0558
GGAAAUGUCUUAUGAUAACTT against Col5a1	inactive: 0.194
GCCGAUGACACUAUCUACCTT against Cryz	inactive: 0.465
GCACUAUCCAGGAGCAUUUTT against Ugt3a2	inactive: -0.313
GAAAGAAACUGCUGAAUGATT against Vmn1r228	inactive: -1.42
GGAGAAACGGGUUUUUCAATT against Nfrkb	inactive: 1.72
UAGCCCAGCCUUCUUUUCCTT against Olfr658	inactive: 0.231
GCUUGAAUUUCUGUGGAGGTT against Olfr1320	active: -2.44
GGAGGCAGAUGCUGGAAUCTT against Defb3	active: 4.19
CCAGAACCAGACGCGUAACTT against Cox6b2	inactive: -0.917
GGCAGAGGUACAAUCAGAUTT against St8sia2	inactive: -0.517
GGGUCCUCAACACUUCAUATT against Gast	inactive: 0.216
GGAGACUAUCCUCAUUAUUTT against Smarca4	inactive: 0.36
GCUUGCUUCGCCUACAUUGTT against Slc46a3	inactive: -0.501
GCACAACAUAUGUUCCGCCTT against Pard3	inactive: -0.382
CGGCUCCAGGCAAAUAUGGTT against Ezh1	inactive: -1.64

Sequence	z-score
GGACGAUCGGAAUUGGAAATT against Slc8b1	inactive: 0.734
GGUAUUUUGCUCAGUCCCGTT against Tfap2b	inactive: 0.106
GGUGCGCUUCUAUGUUCCUTT against Ssrp1	active: 2.38
GCAGAGUUACAAGCUUUUATT against Diaph3	active: -4.98
GCGUGAUUCCAGUUUACAUTT against Mapk6	inactive: -0.376
GGGAUUUUGUACAUUUUUGTT against Egln3	inactive: 1.51
CCAUAGCUGAUACUGAUGCTT against Apol7c	inactive: -0.0563
GCAAAAUUUGGCUUAAAGATT against Bank1	inactive: 0.238
CCAUCUAUGGUAUGGAGCGTT against Abcg4	inactive: 0.606
GGCAAAUAGAGUGUGAACATT against Lgals12	inactive: 0.142
GGGCUAAAUUCAUGGGUUCTT against Timp1	inactive: 0.681
CCUUCGAUUGAUCUCUAAGTT against Eif4e	inactive: 0.587
CCCUCCUCAGUAUUGUACUTT against Dtx2	active: 2.51
GGACAUUUAUCCCAUGACATT against Coro2b	inactive: 0.814
GGGAAAAUGCGAUUCAUGATT against P2ry14	inactive: -0.774
GGUUCUGGAUUUCAUCACGTT against Coasy	inactive: 0.818
GCUUUCCUACGUUUGAAAUTT against Coro1c	inactive: 0.0227
GCCUAUAUAUGGUCUAUAUTT against Slc26a2	inactive: 0.951
GGUACUGAGAGACAUCGAGTT against Tgtp1	inactive: 0.19
GGCAUGUACCAUGUUUUUGTT against Wdr13	inactive: -0.607
CCACUGGUGGACAAACUUUTT against A2ml1	inactive: 1.3
GGAUCUGGAGGACGAUUCATT against 1700020L24Rik	inactive: -0.264

Sequence	z-score
GGAGAAAACUUAGAUUACCTT against Ppil4	active: 2.15
GGAUUCAAACUGGUUUUCATT against Ptcd3	inactive: 1.8
GGUUUCUAUAAAUCUCCCUTT against Eif4b	inactive: 0.895
GGAUUACCAGUCUGGAAGUTT against Eef1d	inactive: 1.24
CCUUCACUAAGGGUAGCUGTT against Serinc4	inactive: 1.02
CCGUUCCCUAAAUGAAUAUTT against Smc6	inactive: 0.894
GGGUUUCUGAGAUUACUGCTT against Ovca2	inactive: 0.455
GGUGUUCGUCAUAUGGAAUTT against Tex46	active: 3.71
GGCUUCAAACAUCCGUUCGTT against Foxb2	inactive: 1.2
GGGAGCAACAGUGGUUGGATT against Cenpk	inactive: -0.278
GGCUGCAUUUAAUGUUUUATT against St6galnac3	inactive: 1.33
GGAUGAAGACUAAUACUAATT against Ltbp2	inactive: 0.724
GGCGAAUUGUAUUUGAAAGTT against Lactb	inactive: 0.686
GGAGAACCUUGUGGACAAGTT against Xpnpep1	inactive: 1.86
GCCUCUGAGUUGCAUGAGUTT against Ppp2r5b	inactive: -0.736
GGAGCACCUAACAACUGUUTT against Errfi1	inactive: 0.0582
CGAGAAAGUAUUGACCGAGTT against Anxa5	inactive: -0.524
CACCUUCAUUUUUGAAAUCTT against Krt6a	inactive: 1.28
GGAGCAUCAUCUGAGCGAGTT against Idh3b	inactive: -0.66

Single values from the list:
z-score with GGAUGGCUCCAUUGUCAUATT against Mpz is entered as inactive: 0.37
z-score with GGAGGCAGAUGCUGGAAUCTT against Defb3 is entered as active: 4.19
